From EP0617288B1, “Long emission wavelength chemiluminescent compounds and their use in test assays” (Novartis AG, priority 1993, dated 1994)

Assay: Light emitting efficiency on Berthold luminometer (MLA-I) with BG-38 filter
Type: physicochemical
Conditions: for Total Counts (RLU's)/2sec amount flashed (pg): 2 seconds integration, mean of duplicate; for RLU's/mol (1 x E20): counts/mol calculated from quantity of 2.5 pg

Molecule	Total Counts (RLU's)/2sec amount flashed (pg) (0.25 pg flashed)	Total Counts (RLU's)/2sec amount flashed (pg) (2.5 pg flashed)	Total Counts (RLU's)/2sec amount flashed (pg) (25.0 pg flashed)	RLU's/mol (1 x E20)
COc1ccc2c(c1)c(C(=O)Oc1c(C)cc(C(=O)OCc3ccccc3)cc1C)c1cc3ccccc3cc1[n+]2C [2-MeO-LEAE-Bz, (4-Benzyloxycarbonyl-2,6-dimethyl)phenyl 2-Methoxy-5-methyl-benz[b]acridinium-12-carboxylate Fluorosulfonate]	27,810 RLU's	223,995 RLU's	2,140,890 RLU's	0.59 RLU's/mol (1 x E20)
COc1ccc2c(c1)c(C(=O)Oc1c(C)cc(C(=O)ON3C(=O)CCC3=O)cc1C)c1cc3ccccc3cc1[n+]2CCS(=O)(=O)[O-] [2-MeO-NSE-LEAE-NHS, (2,6-Dimethyl-4-N-succinimidyloxycarbonyl)phenyl 2-Methoxy-5-(2-sulfoethyl)-benz[b]acridinium-12-carboxylate]	14,853 RLU's	145,403 RLU's	1,503,100 RLU's	0.38 RLU's/mol (1 x E20)
CCOc1ccc2c(C(=O)Oc3c(C)cc(C(=O)OCc4ccccc4)cc3C)c3cc4ccccc4cc3[n+](C)c2c1 [3-EtO-LEAE-Bz, (4-Benzyloxycarbonyl-2,6-dimethyl)phenyl 3-Ethoxy-5-methyl-benz[b]acridinium-12-carboxylate Fluorosulfonate]	93,635 RLU's	883,785 RLU's	6,364,935 RLU's	2.4 RLU's/mol (1 x E20)
COc1ccc2c(C(=O)Oc3c(C)cc(C(=O)OCc4ccccc4)cc3C)c3ccccc3[n+](C)c2c1 [3-MeO-DMAE-Bz, (4-Benzyloxycarbonyl-2,6-dimethyl)phenyl 3-Methoxy-10-methyl-acridinium-9-carboxylate Fluorosulfonate, reference compound]		54,760 RLU's	523,380 RLU's	0.13 RLU's/mol (1 x E20)
Cc1cc(C(=O)OCc2ccccc2)cc(C)c1OC(=O)c1c2ccccc2[n+](C)c2ccc3ccccc3c12 [ABAC, (4-Benzyloxycarbonyl-2,6-dimethyl)phenyl 5-methyl-benz[a]acridinium-12-carboxylate methosulfate, reference compound]		23,600 RLU's	143,400 RLU's	0.058 RLU's/mol (1 x E20)
CC(C)c1cc(C(=O)OCc2ccccc2)cc(C(C)C)c1OC(=O)c1c2ccccc2[n+](C)c2cc3ccccc3cc12 [DIP-LEAE-Bz, (4-Benzyloxycarbonyl-2,6-diisopropyl)phenyl 5-Methyl-benz[b]acridinium-12-carboxylate Fluorosulfonate]	29,930 RLU's	240,610 RLU's	2,413,320 RLU's	0.66 RLU's/mol (1 x E20)
COc1ccc(N(C(=O)c2c3ccccc3[n+](C)c3cc4ccccc4cc23)S(=O)(=O)c2cccc(C(=O)OCc3ccccc3)c2)cc1 [LEAC-Bz, N-(4-Methoxyphenyl)-N-[3-(benzyloxycarbonyl)phenylsulfonyl] 5-Methyl-benz[b]acridinium-12-carboxamide Fluorosulfonate]	79,873 RLU's	767,553 RLU's	6,312,163 RLU's	2.4 RLU's/mol (1 x E20)
Cc1cc(C(=O)OCc2ccccc2)cc(C)c1OC(=O)c1c2ccccc2[n+](C)c2cc3ccccc3cc12 [LEAE-Bz, (4-Benzyloxycarbonyl-2,6-dimethyl)phenyl 5-Methyl-benz[b]acridinium-12-carboxylate Fluorosulfonate]	105,857 RLU's	1,037,943 RLU's	9,037,063 RLU's	2.6 RLU's/mol (1 x E20)
Cc1cc(C(=O)OCc2ccccc2)cc(C)c1OC(=O)c1c2ccccc2[n+](CCCS(=O)(=O)[O-])c2cc3ccccc3cc12 [NSP-LEAE-Bz, (4-Benzyloxycarbonyl-2,6-dimethyl)phenyl 5-(3-Sulfopropyl)-benz[b]acridinium-12-carboxylate]	22,715 RLU's	212,485 RLU's	2,250,520 RLU's	0.54 RLU's/mol (1 x E20)
(4-Benzyloxycarbonyl-2,6-diisopropyl)phenyl 10-Methyl-acridinium-9-carboxylate Fluorosulfonate [DIPAE-Bz, reference compound]	82,115 RLU's	845,660 RLU's	6,041,380 RLU's	2.1 RLU's/mol (1 x E20)
